The target of assay [1] is T1, TurboID-FLAG-TTC5 (human) (UniProt Q8N0Z6).
T1 sequence: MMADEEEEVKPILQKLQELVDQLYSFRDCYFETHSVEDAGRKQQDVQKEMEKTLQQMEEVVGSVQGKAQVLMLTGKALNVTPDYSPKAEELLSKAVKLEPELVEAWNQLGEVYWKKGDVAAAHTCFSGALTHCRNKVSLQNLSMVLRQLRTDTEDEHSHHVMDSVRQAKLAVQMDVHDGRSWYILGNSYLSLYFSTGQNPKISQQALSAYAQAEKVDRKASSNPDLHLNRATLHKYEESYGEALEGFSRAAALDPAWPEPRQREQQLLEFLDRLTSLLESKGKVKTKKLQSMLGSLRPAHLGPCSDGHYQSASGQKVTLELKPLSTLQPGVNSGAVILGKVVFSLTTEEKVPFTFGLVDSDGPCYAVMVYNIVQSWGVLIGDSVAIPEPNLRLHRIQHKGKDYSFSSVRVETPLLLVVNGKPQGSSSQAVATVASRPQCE
The experiment in a line: proximity labelling; TurboID-FLAG-TTC5 (WT or K97A) in TTC5-KO HEK T-REx cells; DMSO, colchicine or nocodazole 30 min, then 50 uM biotin 2.5 h; streptavidin beads, stringent washes, TMT quantitative mass spectrometry.

Assay [2] has as its target T1, TurboID-FLAG-TTC5 (human). The experiment in a line: proximity labelling; TurboID-TTC5 cell lines transfected with SCAPER-FLAG; colchicine 10 uM 30 min, then 50 uM biotin 2.5 h; biotinylated proteins isolated on streptavidin beads and blotted with anti-SCAPER.

Results are given in words; binding and its absence hold for the method and conditions named. In cells and extracts the contact can be indirect. These calls come from enrichment with a bait or labelling near it, and not all partners need be listed. Tags and fused reporters may be left off the sequences shown.

B1: SCAPER (S-phase cyclin A associated protein residing in the ER), endogenous (protein, UniProt Q9BY12 1-1400)
chain: MMASFQRSNSHDKVRRIVAEEGRTARNLIAWSVPLESKDDDGKPKCQTGGKSKRTIQGTHKTTKQSTAVDCKITSSTTGDKHFDKSPTKTRHPRKIDLRARYWAFLFDNLRRAVDEIYVTCESDQSVVECKEVLMMLDNYVRDFKALIDWIQLQEKLEKTDAQSRPTSLAWEVKKMSPGRHVIPSPSTDRINVTSNARRSLNFGGSTGTVPAPRLAPTGVSWADKVKAHHTGSTASSEITPAQSCPPMTVQKASRKNERKDAEGWETVQRGRPIRSRSTAVMPKVSLATEATRSKDDSDKENVCLLPDESIQKGQFVGDGTSNTIESHPKDSLHSCDHPLAEKTQFTVSTLDDVKNSGSIRDNYVRTSEISAVHIDTECVSVMLQAGTPPLQVNEEKFPAEKARIENEMDPSDISNSMAEVLAKKEELADRLEKANEEAIASAIAEEEQLTREIEAEENNDINIETDNDSDFSASMGSGSVSFCGMSMDWNDVLADYEARESWRQNTSWGDIVEEEPARPPGHGIHMHEKLSSPSRKRTIAESKKKHEEKQMKAQQLREKLREEKTLKLQKLLEREKDVRKWKEELLDQRRRMMEEKLLHAEFKREVQLQAIVKKAQEEEAKVNEIAFINTLEAQNKRHDVLSKLKEYEQRLNELQEERQRRQEEKQARDEAVQERKRALEAERQARVEELLMKRKEQEARIEQQRQEKEKAREDAARERARDREERLAALTAAQQEAMEELQKKIQLKHDESIRRHMEQIEQRKEKAAELSSGRHANTDYAPKLTPYERKKQCSLCNVLISSEVYLFSHVKGRKHQQAVRENTSIQGRELSDEEVEHLSLKKYIIDIVVESTAPAEALKDGEERQKNKKKAKKIKARMNFRAKEYESLMETKNSGSDSPYKAKLQRLAKDLLKQVQVQDSGSWANNKVSALDRTLGEITRILEKENVADQIAFQAAGGLTALEHILQAVVPATNVNTVLRIPPKSLCNAINVYNLTCNNCSENCSDVLFSNKITFLMDLLIHQLTVYVPDENNTILGRNTNKQVFEGLTTGLLKVSAVVLGCLIANRPDGNCQPATPKIPTQEMKNKPSQGDPFNNRVQDLISYVVNMGLIDKLCACFLSVQGPVDENPKMAIFLQHAAGLLHAMCTLCFAVTGRSYSIFDNNRQDPTGLTAALQATDLAGVLHMLYCVLFHGTILDPSTASPKENYTQNTIQVAIQSLRFFNSFAALHLPAFQSIVGAEGLSLAFRHMASSLLGHCSQVSCESLLHEVIVCVGYFTVNHPDNQVIVQSGRHPTVLQKLCQLPFQYFSDPRLIKVLFPSLIAACYNNHQNKIILEQEMSCVLLATFIQDLAQTPGQAENQPYQPKGKCLGSQDYLELANRFPQQAWEEARQFFLKKEKK
modifications: biotinylated by TurboID in cells
Regarding B1, in assay [1], the binding result is on record as “binds”.

B2: SCAPER-FLAG overexpressed in HEK293 T-REx cells (protein, UniProt Q9BY12 1-1400)
chain: MMASFQRSNSHDKVRRIVAEEGRTARNLIAWSVPLESKDDDGKPKCQTGGKSKRTIQGTHKTTKQSTAVDCKITSSTTGDKHFDKSPTKTRHPRKIDLRARYWAFLFDNLRRAVDEIYVTCESDQSVVECKEVLMMLDNYVRDFKALIDWIQLQEKLEKTDAQSRPTSLAWEVKKMSPGRHVIPSPSTDRINVTSNARRSLNFGGSTGTVPAPRLAPTGVSWADKVKAHHTGSTASSEITPAQSCPPMTVQKASRKNERKDAEGWETVQRGRPIRSRSTAVMPKVSLATEATRSKDDSDKENVCLLPDESIQKGQFVGDGTSNTIESHPKDSLHSCDHPLAEKTQFTVSTLDDVKNSGSIRDNYVRTSEISAVHIDTECVSVMLQAGTPPLQVNEEKFPAEKARIENEMDPSDISNSMAEVLAKKEELADRLEKANEEAIASAIAEEEQLTREIEAEENNDINIETDNDSDFSASMGSGSVSFCGMSMDWNDVLADYEARESWRQNTSWGDIVEEEPARPPGHGIHMHEKLSSPSRKRTIAESKKKHEEKQMKAQQLREKLREEKTLKLQKLLEREKDVRKWKEELLDQRRRMMEEKLLHAEFKREVQLQAIVKKAQEEEAKVNEIAFINTLEAQNKRHDVLSKLKEYEQRLNELQEERQRRQEEKQARDEAVQERKRALEAERQARVEELLMKRKEQEARIEQQRQEKEKAREDAARERARDREERLAALTAAQQEAMEELQKKIQLKHDESIRRHMEQIEQRKEKAAELSSGRHANTDYAPKLTPYERKKQCSLCNVLISSEVYLFSHVKGRKHQQAVRENTSIQGRELSDEEVEHLSLKKYIIDIVVESTAPAEALKDGEERQKNKKKAKKIKARMNFRAKEYESLMETKNSGSDSPYKAKLQRLAKDLLKQVQVQDSGSWANNKVSALDRTLGEITRILEKENVADQIAFQAAGGLTALEHILQAVVPATNVNTVLRIPPKSLCNAINVYNLTCNNCSENCSDVLFSNKITFLMDLLIHQLTVYVPDENNTILGRNTNKQVFEGLTTGLLKVSAVVLGCLIANRPDGNCQPATPKIPTQEMKNKPSQGDPFNNRVQDLISYVVNMGLIDKLCACFLSVQGPVDENPKMAIFLQHAAGLLHAMCTLCFAVTGRSYSIFDNNRQDPTGLTAALQATDLAGVLHMLYCVLFHGTILDPSTASPKENYTQNTIQVAIQSLRFFNSFAALHLPAFQSIVGAEGLSLAFRHMASSLLGHCSQVSCESLLHEVIVCVGYFTVNHPDNQVIVQSGRHPTVLQKLCQLPFQYFSDPRLIKVLFPSLIAACYNNHQNKIILEQEMSCVLLATFIQDLAQTPGQAENQPYQPKGKCLGSQDYLELANRFPQQAWEEARQFFLKKEKK
modifications: biotinylated by TurboID in cells
B2: the binding entry in assay [2] is “binds”.

The values are drawn from publication PMC10403363, “Mechanism of ribosome-associated mRNA degradation during tubulin autoregulation” (Molecular Cell, 2023).
